Experimental findings from paper PMC5893545 are described below.

Protein sequences can lack the tags named with them.

The target of this data set is T1, NIGT1.1(DBD) (Arabidopsis thaliana) (UniProt Q9FPE8).
T1 sequence (looked up, limits assumed): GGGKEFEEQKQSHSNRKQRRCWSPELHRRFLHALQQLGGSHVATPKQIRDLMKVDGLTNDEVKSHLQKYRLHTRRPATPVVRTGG
The data set is described as follows: EMSA. The conditions noted are these: 20 mM HEPES-KOH pH 7.6, 3 mM MgCl2, 30 mM KCl, 20 mM NaCl, 2 mM DTT, 0.5 mM EDTA, 10% glycerol, 0.5 ug poly[d(I-C)], 0.1x Complete; 25-50 ng protein, 2.5-5 ng probe; recombinant protein; protein details: Trx, His (pET32); label: biotin; probe letters rebuilt from the primers and the genome. A general note: A gel shift assay detects complexes by their altered migration in electrophoresis.

With “ACACAGGAAACAGCTATGACCATGTGTTATAAAATATTTCAAGTTTCTTTGCAAGTTTGAGATTTGATTCAAGTTTATTTGATCGATGTCTGAATATTAATCACACGATGGCTTATATAGGGTTCCTAGCCAGTGTTGACAATGAAAAAAGCATTCTTTGGAGATTCTCAACGGTTAACTATCGATTTAAATATTAATTTTCGAGGAATCCATTTTCGCCGCAAGCATCTTCCTAGTCTCTCGCTTATCACCAAAGGTTGCCGATATCCTTCCAAATGACCGCTCTACCCTTCCCTCATCTTGC (double strand) [NRT2.1 p5]”, the binding result was “binds”.
